These results are taken from PubChem BioAssay AID330 (DTP/NCI, 2004).

The list is a part of this screen's results and no random one: it gathers tests that were run many times, whatever their T/C, doses with no T/C, and many T/C values between a quarter and a half above the control. Other doses and runs of a compound stand elsewhere. T/C gives the treated animals as a percentage of the vehicle group. Some doses have a count of surviving animals in place of a T/C: the source files T/C as zero there, which appears to mark a toxic dose or a test without result, not a measured value. Some survivor counts are full or nearly so, which does not show that the dose was tolerated: the source hardly ever lists a survival T/C far under the control, and the zero likely stands for such cases as well. Survivors were counted at the toxicity check, usually on the fifth day, unless a day is given; later deaths do not show. Schedule codes are those of the source, read here as Q, the interval in days (D) or hours (H), X, the number of doses. Where survival is the endpoint, this PubChem deposit counts one and a half times the control or more as active, and values a quarter to a half above the control carry no call in these data; other NCI protocols may use other cut-offs.

The test system of this assay is P388 leukemia ip, CD2F1 mice, survival T/C. Description: NCI In Vivo Anticancer Drug Screen. Data for tumor model P388 Leukemia (intraperitoneal) in CD2F1 (CDF1) mice. To be noted: T/C endpoint: median survival time, higher T/C = longer survival.
Where [1] appears, read: dose: 200.0 mg/kg/injection, schedule: Q01DX001 (ip), vehicle: saline.
[2] abbreviates: dose: 400.0 mg/kg/injection, schedule: Q01DX001 (ip), vehicle: saline.
Where [3] appears, read: dose: 60.0 mg/kg/injection, schedule: Q01DX005 (ip), vehicle: saline with Tween-80.
[4] abbreviates: dose: 120.0 mg/kg/injection, schedule: Q01DX005 (ip), vehicle: saline with Tween-80.
Setting [5] is: dose: 240.0 mg/kg/injection, schedule: Q01DX005 (ip), vehicle: saline with Tween-80.
The mark [6] stands for this setting: dose: 200.0 mg/kg/injection, schedule: Q01DX009 (ip), vehicle: Klucel (hydroxypropylcellulose) (HPC).
[7] abbreviates: dose: 200.0 mg/kg/injection, schedule: Q01DX009 (ip), vehicle: saline with Tween-80.
Setting [8] is: dose: 100.0 mg/kg/injection, schedule: Q01DX009 (ip), vehicle: gum acacia.

On to `Cc1ccc(NC(=O)N(CCCl)N=O)cc1NC(=O)N(CCCl)N=O`, for which the T/C (dose: 0.2 mg/kg/injection, schedule: Q01DX009 (ip), vehicle: other) was 130 % of control; the T/C (dose: 0.2 mg/kg/injection, schedule: Q01DX009 (ip), vehicle: saline + alcohol) was 132 % of control; the T/C (dose: 0.29 mg/kg/injection, schedule: Q01DX009 (ip), vehicle: other) was 127 % of control; the T/C (dose: 0.4 mg/kg/injection, schedule: Q01DX009 (ip), vehicle: other) was 140 % of control; the T/C (dose: 0.4 mg/kg/injection, schedule: Q01DX009 (ip), vehicle: saline + alcohol) is 134 % of control; the T/C (dose: 0.44 mg/kg/injection, schedule: Q01DX009 (ip), vehicle: other) was 136 % of control. Further, the T/C was 131 % of control (dose: 0.66 mg/kg/injection, schedule: Q01DX009 (ip), vehicle: other); 140 % of control (dose: 0.75 mg/kg/injection, schedule: Q01DX009 (ip), vehicle: saline with Tween-80); 144 % of control (dose: 0.8 mg/kg/injection, schedule: Q01DX009 (ip), vehicle: saline + alcohol); 147 % of control (dose: 1.5 mg/kg/injection, schedule: Q01DX009 (ip), vehicle: saline with Tween-80). Further, the survivor count (dose: 25.0 mg/kg/injection, schedule: Q01DX009 (ip), vehicle: other) is 6 of 6.

As to `C=C(C[P+](c1ccccc1)(c1ccccc1)c1ccccc1)C(=O)OCC`, the survivor count (dose: 25.0 mg/kg/injection, schedule: Q01DX001 (ip), vehicle: suspension in saline) was 4 of 5; the survivor count (dose: 50.0 mg/kg/injection, schedule: Q01DX001 (ip), vehicle: suspension in saline) is 1 of 5; the survivor count (dose: 100.0 mg/kg/injection, schedule: Q01DX001 (ip), vehicle: saline) is 0 of 5; the survivor count under setting [1] is reported as 0 of 5; the survivor count under setting [2] is 0 of 5.

Consider `C/C(=N\N1CN(C(C)C(=O)O)P(Nc2ncn[nH]2)N=C1N)c1cccs1` (stereo unspecified), for which the survivor count is on record as 2 of 6 under setting [3], 0 of 6 under setting [4] and 0 of 6 under setting [5].

Take `COc1ccc(Cc2c3cc(OC)c(OC)cc3cc(=O)n2C)cc1OC`: the survivor count under setting [6] is 1 of 6.

With `CSC(Cl)=NC(=O)C(=O)N=C(Cl)SC`, under setting [7], the survivor count was 5 of 6.

Regarding `CCCCCCCC(=O)NC1CC(O[C@H]2C[C@](O)(C(=O)CO)Cc3c(O)c4c(c(O)c32)C(=O)c2c(OC)cccc2C4=O)OC(C)C1O` (stereo partly specified), the survivor count (dose: 200.0 mg/kg/injection, schedule: Q01DX009 (ip), vehicle: other) was 6 of 6.

For the compound `CC(CCC1(O)OC2CC3C4CC=C5CC(OC6OC(CO)C(OC7OC(C)C(O)C(O)C7O)C(O)C6O)CCC5(C)C4CCC3(C)C2C1(C)C)COC1OC(C)C(O)C(O)C1O` (stereo unspecified), the survivor count is, setting by setting: (dose: 10.0 mg/kg/injection, schedule: Q01DX005 (ip), vehicle: Klucel (hydroxypropylcellulose) (HPC)) 2 of 5; (dose: 20.0 mg/kg/injection, schedule: Q01DX005 (ip), vehicle: Klucel (hydroxypropylcellulose) (HPC)) 3 of 5; (dose: 40.0 mg/kg/injection, schedule: Q01DX005 (ip), vehicle: Klucel (hydroxypropylcellulose) (HPC)) 0 of 5.

For the compound `CC1(C)OCC(C2OC3OC(C)(C)OC3C2OP(=O)(N2CC2)N2CC2)O1` (stereo unspecified), the T/C under setting [7] is 133 % of control.

In the case of `CN1C(=O)C=CC1=O`, the survivor count (dose: 8.0 mg/kg/injection, schedule: Q01DX009 (ip), vehicle: saline) is 0 of 6.

`CC(C)=C1CC(C)(C)N2CCCC12` (stereo unspecified): the survivor count (dose: 100.0 mg/kg/injection, schedule: Q01DX005 (ip), vehicle: Klucel (hydroxypropylcellulose) (HPC)) is recorded as 0 of 6 and the survivor count (dose: 200.0 mg/kg/injection, schedule: Q01DX005 (ip), vehicle: Klucel (hydroxypropylcellulose) (HPC)) was 0 of 6.

Regarding `Nc1ccn([C@@H](C=O)C[C@@H](C=O)CO)c(=O)n1`, the T/C reads like this: (dose: 50.0 mg/kg/injection, schedule: Q01DX005 (ip), vehicle: saline) 129 % of control; (dose: 100.0 mg/kg/injection, schedule: Q01DX005 (ip), vehicle: saline) 141 % of control.

`COc1ccc(C[Se][Se]Cc2ccc(OC)cc2)cc1`: the survivor count runs as follows: (dose: 50.0 mg/kg/injection, schedule: Q01DX009 (ip), vehicle: Klucel (hydroxypropylcellulose) (HPC)) 6 of 6; (dose: 100.0 mg/kg/injection, schedule: Q01DX009 (ip), vehicle: Klucel (hydroxypropylcellulose) (HPC)) 3 of 6; under setting [6], 0 of 6.

For the compound `CCCCCCOC(=O)C(N)Cc1ccc(N(CCCl)CCCl)cc1` (stereo unspecified), where the note is “dose: 1.6 mg/kg/injection, schedule: Q03HX008 (ip), vehicle: saline”, the T/C was 140 % of control.

Turning to `CCOc1cc(/C=N\Nc2nnc(C)n2N)c(C)cc1N(CCCl)CCCl`, the T/C is, setting by setting: (dose: 0.5 mg/kg/injection, schedule: Q01DX009 (ip), vehicle: saline with Tween-80) 130 % of control; (dose: 1.0 mg/kg/injection, schedule: Q01DX009 (ip), vehicle: saline with Tween-80) 135 % of control; (dose: 10.0 mg/kg/injection, schedule: Q04DX003 (ip), vehicle: saline) 130 % of control.

Consider `CCCCCCCCCc1cc(CN2CCCCC2)c(O)c(CN2CCCCC2)c1`, for which the survivor count (dose: 100.0 mg/kg/injection, schedule: Q01DX009 (ip), vehicle: saline) was 0 of 6.

As for `CCCCCCCC(=O)c1c(O)c2ccccc2oc1=O`, the survivor count is listed as 5 of 6 under setting [4] and 3 of 6 under setting [5].

As to `CNCCOC(=O)/C=C1\CC[C@H]2[C@@H]([C@@H](O)C(=O)[C@@H]3[C@]2(C)CC[C@H](O)[C@]3(C)C(=O)OC)[C@H]1C`, the survivor count (dose: 25.0 mg/kg/injection, schedule: Q01DX009 (ip), vehicle: saline) was 2 of 6 and the survivor count (dose: 50.0 mg/kg/injection, schedule: Q01DX009 (ip), vehicle: saline) was 0 of 6.

For `C=CC(C)(C)c1c2c(c(OC)c3ccc(=O)oc13)C=CC(C)(C)O2`, the survivor count is listed as 6 of 6 (dose: 100.0 mg/kg/injection, schedule: Q01DX005 (ip), vehicle: saline with Tween-80) and 6 of 6 (dose: 200.0 mg/kg/injection, schedule: Q01DX005 (ip), vehicle: saline with Tween-80).

In the case of `O=C(NNc1ncccn1)c1ccc(C(=O)NNc2ncccn2)cc1`, the survivor count is, setting by setting: (dose: 30.0 mg/kg/injection, schedule: Q01DX005 (ip), vehicle: saline with Tween-80) 6 of 6; under setting [3], 6 of 6; under setting [4], 6 of 6; under setting [5], 6 of 6.

For the compound `CC[N+](C)(CC)CCNc1cc2c(c3c(=O)c4ccccc4sc13)CCCC2`, the survivor count (dose: 200.0 mg/kg/injection, schedule: Q01DX005 (ip), vehicle: distilled water + Tween-80) is 2 of 6.

Consider `CC(=O)C1=C(O)C2(C)c3c(O)c(C)c(O)c(C(C)=O)c3OC2CC1=O` (stereo unspecified), for which, under setting [8], the T/C is 128 % of control and the survivor count is given as 2 of 6. For the same compound, the survivor count (dose: 200.0 mg/kg/injection, schedule: Q01DX009 (ip), vehicle: gum acacia) is 0 of 6.

With `O=S(=O)(C(Br)S(=O)(=O)C(F)(F)C(F)(F)C(F)(F)C(F)(F)F)C(F)(F)C(F)(F)C(F)(F)C(F)(F)F`, the survivor count by setting is: under setting [1], 4 of 6; under setting [2], 0 of 6.

As for `NC(N)=NCCCCCC(=O)O`, the survivor count (dose: 200.0 mg/kg/injection, schedule: Q01DX009 (ip), vehicle: saline) is 3 of 6.
